Reference: US6489098B1, “Means and methods for monitoring nucleoside reverse transcriptase inhibitor antiretroviral therapy and guiding therapeutic decisions in the treatment of HIV/AIDS” (ViroLogic, Inc., priority 1998, dated 2002)
Values joined by “and” are separate entries in the source; they are usually repeats but may differ in a detail not shown here. Identical values can stand only once. At least one read-out could not be matched to a standard name with certainty.

Columns and labels:
Type in all cases: cell-based
[1] = test system: HIV-1 RT mutant resistance test vector A62V-T69SSA-T215Y-RTV; assay: Phenotypic susceptibility assay, site directed RTV A62V-T69SSA-T215Y; settings: RTV with 62 + 69 + 215 (A62V, T69SSA, T215Y), 1 replicate
Protocol: (§1) Resistance tests were carried out with resistance test vectors using two host cell types. Resistance test vector viral particles were produced by a first host cell (the resistance test vector host cell) that was prepared by transfecting a packaging host cell with the resistance test vector and the packaging expression vector. The resistance test vector viral particles were then used to infect a second host cell (the target host cell) in which the expression of the indicator gene is measured.
(§2) The resistance test vectors containing a functional luciferase gene cassette were constructed and host cells were transfected with the resistance test vector DNA. The resistant test vectors contained patient-derived reverse transcriptase and protease sequences that were either susceptible or resistant to the antiretroviral agents, such as nucleoside reverse transcriptase inhibitors, non-nucleoside reverse transcriptase inhibitors and protease inhibitors. The resistance test vector viral particles produced by transfecting the resistance test vector DNA into host cells, either in the presence or absence of protease inhibitors, were used to infect target host cells grown either in the absence of NRTI or NNRTI or In the presence of increasing concentrations of the drug. The amount of luciferase activIty produced in infected target host cells in the presence of drug was compared to the amount of luciferase produced in infected target host cells in the absence of drug. Drug resistance was measured as the amount of drug required to inhibit by 50% the luciferase activity detected in the absence of drug (Inhibitory concentration 50%, IC50). The IC50 values were determined by plotting percent drug inhibition vs. log 10 drug concentration.
(§3) Host cells were seeded in 10-cm-diameter dishes and were transfected several days after plating with resistance test vector plasmid DNA and the envelope expression vector. Transfections were performed using a calcium-phosphate precipitation procedure. The cell culture media containing the DNA precipitate was replaced with fresh medium, from one to 24 hours, after transfection. Cell culture media containing resistance test vector viral particles was harvested one to four days after transfection and was passed through a […] filter before being stored at −80° C. HIV capsid protein (p24) levels in the harvested cell culture media were determined by an EIA method as described by the manufacturer (SIAC; Frederick, Md.). Before infection, target cells (293 and 293/T) were plated in cell culture media. Control infections were performed using cell culture media from mock transfections (no DNA) or transfections containing the resistance test vector plasmid DNA without the envelope expression plasmid. One to three or more days after infectIon the media was removed and cell lysis buffer (Promega) was added to each well. […] The inhibitory effect of the drug was determined using the following equation:
(§4) % luciferase inhibition=1−(RLUluc[drug]÷RLUluc)×100
(§5) where RLUluc [drug] is the relative light unit of luciferase activity in infected cells in the presence of drug and RLUluc is the Relative Light Unit of luciferase activity in infected cells in the absence of drug. IC50 values were obtained from the sigmoidal curves that were generated from the data by plotting the percent inhibition of luciferase activity vs. the log 10 drug concentration.
(§6) Mutations may be incorporated alone and/or in combination with other known drug resistance mutations that are thought to modulate the susceptibility of HIV to a certain drug or class of drugs. Mutations are introduced into the resistance test vector through any of the widely known methods for site-directed mutagenesis. In one embodiment of this invention the mega-primer PCR method for site-directed mutagenesis is used.

[2] = test system: HIV-1 RT mutant resistance test vector M41L-A62V-T69SSA-T215Y-RTV; assay: Phenotypic susceptibility assay, site directed RTV M41L+A62V+T69SSA+T215Y; settings: RTV with 41 + 62 + 69 + 215, 3 replicates
Protocol: as §1, §2, §3, §4, §5, §6

[3] = test system: HIV-1 RT mutant resistance test vector M41L-T69SSA-T215Y-L210W-RTV; assay: Phenotypic susceptibility assay, site directed RTV M41L+T69SSA+L210W+T215Y; settings: RTV with 41 + 69 + 210 + 215, 3 replicates
Protocol: as §1, §2, §3, §4, §5, §6

[4] = test system: HIV-1 RT mutant resistance test vector M41L-T69SSA-T215Y-L210W-V75M-RTV; assay: Phenotypic susceptibility assay, site directed RTV M41L+T69SSA+V75M+L210W+T215Y; settings: RTV with 41 + 69 + 75M + 210 + 215, 1 replicate
Protocol: as §1, §2, §3, §4, §5, §6

[5] = test system: HIV-1 RT mutant resistance test vector M41L-A62V-T69SSA-T215Y-L210W-RTV; assay: Phenotypic susceptibility assay, site directed RTV M41L+A62V+T69SSA+L210W+T215Y; settings: RTV with 41 + 62 + 69 + 210 + 215, 3 replicates
Protocol: as §1, §2, §3, §4, §5, §6

[6] = test system: HIV-1 RT mutant resistance test vector A62V-T69SSA-L74V-RTV; assay: Phenotypic susceptibility assay, site directed RTV A62V-T69SSA-L74V; settings: RTV with 62 + 69 + 74V, 1 replicate
Protocol: as §1, §2, §3, §4
as §5, with “concentration. […]” for “concentration.”

SMILES	Average fold reduction in susceptibility [1]	Average fold reduction in susceptibility [2]	Average fold reduction in susceptibility [3]	Average fold reduction in susceptibility [4]	Average fold reduction in susceptibility [5]	Average fold reduction in susceptibility ([1]; listed as abacavir)	Average fold reduction in susceptibility [6]	Average fold reduction in susceptibility ([6]; listed as abacavir)	Average fold reduction in susceptibility ([2]; listed as abacavir)	Average fold reduction in susceptibility ([3]; listed as abacavir)	Average fold reduction in susceptibility ([4]; listed as abacavir)	Average fold reduction in susceptibility ([5]; listed as abacavir)	Average fold reduction in susceptibility ([1]; listed as ddl)	Average fold reduction in susceptibility ([6]; listed as ddl)	Average fold reduction in susceptibility ([2]; listed as ddl)	Average fold reduction in susceptibility ([3]; listed as ddl)	Average fold reduction in susceptibility ([4]; listed as ddl)	Average fold reduction in susceptibility ([5]; listed as ddl)
Cc1cn([C@H]2C=C[C@@H](CO)O2)c(=O)[nH]c1=O [d4T, stavudine]	7 fold and 6.97 fold	10 fold and 8 fold and 7.99 fold	10 fold and 10.18 fold	11 fold and 11.41 fold	13 fold and 13.30 fold	–	–	–	–	–	–	–	–	–	–	–	–	–
Nc1ccn([C@H]2CC[C@@H](CO)O2)c(=O)n1 [ddC, zalcitabine]	1.3 fold and 1.34 fold	2.1 fold and 1.67 fold	3 fold and 2.97 fold	2.9 fold and 2.86 fold	–	–	–	–	–	–	–	–	–	–	–	–	–	–
Nc1nc(NC2CC2)c2ncn([C@H]3C=C[C@@H](CO)C3)c2n1 [ABC, abacavir]	9.84 fold	9.68 fold	13.90 fold	19.34 fold	16.41 fold	10 fold	3.07 fold	3 fold	10 fold	14 fold	19 fold	16 fold	–	–	–	–	–	–
O=c1[nH]cnc2c1ncn2[C@H]1CC[C@@H](CO)O1 [ddI, didanosine]	2.5 fold	3 fold	3.5 fold	3.5 fold	3 fold	–	1.9 fold	–	–	–	–	–	2.52 fold	1.92 fold	2.61 fold	3.48 fold	3.49 fold	3.02 fold
